In paper PMC13484441:
These are yes or no findings as the source states them, for the method shown. For part of these data: Binding seen in cells or lysates may run through a third protein. Some results given as binding are weak or reduced against the parent protein; the word gives no strength. Where a sequence is shown, tags or fusion partners need not be part of it. Values belong to the binder of their own block, whether it stands above or below them.

Key:
[1] = biological target: T1, U2AF1-3XFLAG (endogenously tagged U2AF1) (human (endogenous in HBEC)) (UniProt Q01081); assay: co-IP; U2AF1-FLAG IP followed by Western blot for DDX42
T1 sequence: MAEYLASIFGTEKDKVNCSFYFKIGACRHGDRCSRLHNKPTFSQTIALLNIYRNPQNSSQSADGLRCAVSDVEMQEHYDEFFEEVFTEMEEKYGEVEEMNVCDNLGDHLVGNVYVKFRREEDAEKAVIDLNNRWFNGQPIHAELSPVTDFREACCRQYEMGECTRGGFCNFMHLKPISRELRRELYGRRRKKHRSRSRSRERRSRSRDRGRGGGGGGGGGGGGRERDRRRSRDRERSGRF

[2] = biological target: T2, 3X-FLAG-U2AF1 (full length, recombinant), Q01081; assay: tandem affinity co-purification (HisTrap IMAC, then anti-FLAG M2 beads); the two subunits co-expressed in Tni-FNL insect cells; lysate loaded on a HisTrap HP column in 500 mM NaCl, eluted with imidazole, then anti-FLAG M2 magnetic beads, eluted with 3xflag peptide; settings: remark: other sources report otherwise
T2 chain: T1 sequence

[3] = biological target: T3, 3X-FLAG-U2AF1-HALO (recombinant), Q01081; assay: as above; settings: remark: other sources report otherwise
T3 chain: T1 sequence

binding [1]: binds
B1: DDX42 (protein, UniProt Q86XP3 1-938)
chain: MNWNKGGPGTKRGFGFGGFAISAGKKEEPKLPQQSHSAFGATSSSSGFGKSAPPQLPSFYKIGSKRANFDEENAYFEDEEEDSSNVDLPYIPAENSPTRQQFHSKPVDSDSDDDPLEAFMAEVEDQAARDMKRLEEKDKERKNVKGIRDDIEEEDDQEAYFRYMAENPTAGVVQEEEEDNLEYDSDGNPIAPTKKIIDPLPPIDHSEIDYPPFEKNFYNEHEEITNLTPQQLIDLRHKLNLRVSGAAPPRPGSSFAHFGFDEQLMHQIRKSEYTQPTPIQCQGVPVALSGRDMIGIAKTGSGKTAAFIWPMLIHIMDQKELEPGDGPIAVIVCPTRELCQQIHAECKRFGKAYNLRSVAVYGGGSMWEQAKALQEGAEIVVCTPGRLIDHVKKKATNLQRVSYLVFDEADRMFDMGFEYQVRSIASHVRPDRQTLLFSATFRKKIEKLARDILIDPIRVVQGDIGEANEDVTQIVEILHSGPSKWNWLTRRLVEFTSSGSVLLFVTKKANAEELANNLKQEGHNLGLLHGDMDQSERNKVISDFKKKDIPVLVATDVAARGLDIPSIKTVINYDVARDIDTHTHRIGRTGRAGEKGVAYTLLTPKDSNFAGDLVRNLEGANQHVSKELLDLAMQNAWFRKSRFKGGKGKKLNIGGGGLGYRERPGLGSENMDRGNNNVMSNYEAYKPSTGAMGDRLTAMKAAFQSQYKSHFVAASLSNQKAGSSAAGASGWTSAGSLNSVPTNSAQQGHNSPDSPVTSAAKGIPGFGNTGNISGAPVTYPSAGAQGVNNTASGNNSREGTGGSNGKRERYTENRGSSRHSHGETGNRHSDSPRHGDGGRHGDGYRHPESSSRHTDGHRHGENRHGGSAGRHGENRGANDGRNGESRKEAFNRESKMEPKMEPKVDSSKMDKVDSKTDKTADGFAVPEPPKRKKSRWDS

binding [2]: binds
binding [3]: binds
B2: 6X-HIS-U2AF2 (full length, recombinant), P26368 1-475 (protein)
chain: MSDFDEFERQLNENKQERDKENRHRKRSHSRSRSRDRKRRSRSRDRRNRDQRSASRDRRRRSKPLTRGAKEEHGGLIRSPRHEKKKKVRKYWDVPPPGFEHITPMQYKAMQAAGQIPATALLPTMTPDGLAVTPTPVPVVGSQMTRQARRLYVGNIPFGITEEAMMDFFNAQMRLGGLTQAPGNPVLAVQINQDKNFAFLEFRSVDETTQAMAFDGIIFQGQSLKIRRPHDYQPLPGMSENPSVYVPGVVSTVVPDSAHKLFIGGLPNYLNDDQVKELLTSFGPLKAFNLVKDSATGLSKGYAFCEYVDINVTDQAIAGLNGMQLGDKKLLVQRASVGAKNATLVSPPSTINQTPVTLQVPGLMSSQVQMGGHPTEVLCLMNMVLPEELLDDEEYEEIVEDVRDECSKYGLVKSIEIPRPVDGVEVPGCGKIFVEFTSVFDCQKAMQGLTGRKFANRVVVTKYCDPDSYHRRDFW
